Consider 17 compounds from PubChem BioAssay AID445 (National Center for Advancing Translational Sciences (NCATS), 2006).

A short description of this test: IkB Signaling. Particulars: ABC-DLBCL IkBa-CBG/CBR dual luciferase ratio (green luciferase fused to IkBa over red control in OCI-Ly3 lymphoma cells), 4 h. In a few lines:
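Luminescence ratio of IκBα-fused green versus native red beetle luciferase in OCI-Ly3 cells, 4 h post-doxycycline with compound; red signal alone, scaled from basal (0%) to zero light (-100%), flagged nonspecific or cytotoxic effects.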

The mark [1] stands for this setting: measured here: control luc red channel unless noted.

The other results are listed elsewhere or left out. These are further read-outs of the screen, such as a control signal, another cell line or another target. No call is given for them. Most of these compounds were active or inconclusive in the main read-out, so they are no random draw. Potencies come from curve fits of mixed quality, noted in brackets.

As to `Cc1nn(Cc2ccccc2)c(Cl)c1C(=O)OCc1nnc(-c2ccc(Cl)cc2)o1`, the AC50 under setting [1] is 31.6 µM [falling, partial curve].
`Cc1ccc2[nH]c3c(=O)n(CC(=O)NCCCN4CCN(c5ccc(F)cc5)CC4)ncc3c2c1`: under setting [1], the half-maximal activity concentration (AC50) was 6.31 µM [rising, single point].
Regarding `Cc1cccc(C)c1NC(=O)c1nc(SC(C)C)ncc1Cl`, the half-maximal activity concentration (AC50) under setting [1] is 10 µM [falling, partial curve].
Turning to `COCCCNC(=O)C1CCN(C(=O)c2ccc(-n3ccc4ccccc43)s2)CC1`, the AC50 is, setting by setting: (measured here: IkB-luc green channel) 1.58 µM [rising, partial curve]; (measured here: control luc red channel) 25.1 µM [falling, partial curve].
Take `Cc1cc(C)cc(N(CC(=O)Nc2ccc(C)cc2Cl)S(=O)(=O)c2c(C)[nH]c(=O)[nH]c2=O)c1`: the AC50 under setting [1] was 20 µM [falling, single point].
In the case of `Cc1ccccc1CNC(=O)Cc1csc2ccccc12`, under setting [1], the AC50 is 12.6 µM [falling, single point].
Same read-out and setting: under `CCN(CC)C(=O)c1sc2c(c1C)c(=O)n(Cc1ccccc1)c(=O)n2CC(=O)Nc1ccc(OC)cc1` stands 5.01 µM [rising, partial curve].
Same read-out and setting: under `O=c1c(NCCc2ccc(Cl)cc2)nccn1-c1ccccc1` stands 0.501 µM [rising, full curve].
Take `COc1ccc(OC)c(CCNC(=O)c2cc3cccc4c3n2CCS4)c1`: the AC50 under setting [1] was 20 µM [falling, single point].
Regarding `Cc1cc2n(n1)CCCN2C(=O)Nc1ccc(C)c(Cl)c1`, the concentration at half-maximal activity (AC50) under setting [1] is 10 µM [rising, partial curve].
Regarding `Cc1ccc(C)c(N2CCN(S(=O)(=O)c3ccc(F)c(C(=O)Nc4ccc(Cl)cc4Cl)c3)CC2)c1`, the AC50 under setting [1] is 7.94 µM [falling, partial curve].
Still for that read-out and setting: the figure for `CCN(Cc1ccccc1)C(=O)CCS(=O)(=O)c1cc(Br)cc2c1N(C(=O)C1CC1)CC2` is 31.6 µM [falling, single point].
`CN(c1ccccc1)S(=O)(=O)c1nnc(NC(=O)c2cccs2)s1`: the concentration at half-maximal activity (AC50) under setting [1] was 0.316 µM [rising, partial curve].
Same read-out and setting: the figure for `CCOC(=O)c1c(C)oc2ccc(N(C(=O)c3ccncc3)S(=O)(=O)c3ccc(F)cc3)cc12` is 31.6 µM [falling, single point].
`COc1cccc(NC2=CC(c3ccc(C(C)C)cc3)N(c3cccc(OC)c3)C2=O)c1` (stereo not drawn): under setting [1], the AC50 was 3.98 µM [falling, full curve].
Same read-out and setting: the figure for `COc1ccc(C)cc1NS(=O)(=O)c1cc(Br)cc2c1N(C(C)=O)C(C)C2` (stereo not drawn) is 20 µM [falling, partial curve]; for `COc1ccc(/C=N/n2c(SC)nnc2-c2ccccc2)cc1C` it is 15.8 µM [falling, partial curve].

One may read the AC50 as the midpoint of the concentration-response curve, whichever way the signal moves.
